Measurements taken from the supplement of paper PMC10849652.
The other results are listed elsewhere or left out.

Sequences of proteins named here, by UniProt entry; tags and fusion partners are left off. A change or cut given only in a name is not applied to a line headed by its entry.
UniProt Q9Y678: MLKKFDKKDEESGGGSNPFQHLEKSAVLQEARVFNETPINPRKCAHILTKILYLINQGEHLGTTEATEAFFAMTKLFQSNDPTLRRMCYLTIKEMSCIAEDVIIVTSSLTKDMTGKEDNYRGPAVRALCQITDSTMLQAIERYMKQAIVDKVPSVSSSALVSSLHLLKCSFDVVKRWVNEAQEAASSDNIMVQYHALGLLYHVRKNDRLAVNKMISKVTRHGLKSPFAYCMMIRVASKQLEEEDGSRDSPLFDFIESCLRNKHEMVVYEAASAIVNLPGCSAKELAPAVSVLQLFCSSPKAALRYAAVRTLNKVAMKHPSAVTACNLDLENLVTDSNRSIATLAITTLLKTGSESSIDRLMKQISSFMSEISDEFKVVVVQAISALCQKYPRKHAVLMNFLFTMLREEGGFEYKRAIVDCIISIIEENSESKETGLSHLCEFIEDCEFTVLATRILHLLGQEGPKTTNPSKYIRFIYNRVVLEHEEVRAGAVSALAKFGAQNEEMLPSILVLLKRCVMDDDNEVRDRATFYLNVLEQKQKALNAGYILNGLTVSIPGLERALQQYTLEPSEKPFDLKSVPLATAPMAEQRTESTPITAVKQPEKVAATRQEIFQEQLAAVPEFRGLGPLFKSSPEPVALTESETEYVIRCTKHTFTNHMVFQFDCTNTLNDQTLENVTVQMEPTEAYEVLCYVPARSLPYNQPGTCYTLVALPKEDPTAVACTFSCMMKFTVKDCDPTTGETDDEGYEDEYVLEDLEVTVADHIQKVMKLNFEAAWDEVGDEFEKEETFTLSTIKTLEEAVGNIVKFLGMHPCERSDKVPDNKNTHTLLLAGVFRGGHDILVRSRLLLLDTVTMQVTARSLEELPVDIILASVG
UniProt O43405: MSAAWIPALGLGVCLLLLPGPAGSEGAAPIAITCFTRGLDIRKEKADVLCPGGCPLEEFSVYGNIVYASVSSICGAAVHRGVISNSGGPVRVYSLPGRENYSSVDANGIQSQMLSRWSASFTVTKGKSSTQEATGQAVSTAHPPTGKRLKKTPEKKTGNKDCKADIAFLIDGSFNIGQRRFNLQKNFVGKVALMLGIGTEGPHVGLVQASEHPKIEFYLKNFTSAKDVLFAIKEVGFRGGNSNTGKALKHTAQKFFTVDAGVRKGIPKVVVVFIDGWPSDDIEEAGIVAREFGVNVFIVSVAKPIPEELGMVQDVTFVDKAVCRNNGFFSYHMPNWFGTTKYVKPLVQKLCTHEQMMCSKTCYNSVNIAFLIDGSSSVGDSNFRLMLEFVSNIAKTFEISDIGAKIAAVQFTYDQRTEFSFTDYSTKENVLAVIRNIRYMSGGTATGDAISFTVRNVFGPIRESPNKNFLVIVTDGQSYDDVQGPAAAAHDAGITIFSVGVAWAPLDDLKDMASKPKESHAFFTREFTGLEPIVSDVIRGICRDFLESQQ
UniProt P83436: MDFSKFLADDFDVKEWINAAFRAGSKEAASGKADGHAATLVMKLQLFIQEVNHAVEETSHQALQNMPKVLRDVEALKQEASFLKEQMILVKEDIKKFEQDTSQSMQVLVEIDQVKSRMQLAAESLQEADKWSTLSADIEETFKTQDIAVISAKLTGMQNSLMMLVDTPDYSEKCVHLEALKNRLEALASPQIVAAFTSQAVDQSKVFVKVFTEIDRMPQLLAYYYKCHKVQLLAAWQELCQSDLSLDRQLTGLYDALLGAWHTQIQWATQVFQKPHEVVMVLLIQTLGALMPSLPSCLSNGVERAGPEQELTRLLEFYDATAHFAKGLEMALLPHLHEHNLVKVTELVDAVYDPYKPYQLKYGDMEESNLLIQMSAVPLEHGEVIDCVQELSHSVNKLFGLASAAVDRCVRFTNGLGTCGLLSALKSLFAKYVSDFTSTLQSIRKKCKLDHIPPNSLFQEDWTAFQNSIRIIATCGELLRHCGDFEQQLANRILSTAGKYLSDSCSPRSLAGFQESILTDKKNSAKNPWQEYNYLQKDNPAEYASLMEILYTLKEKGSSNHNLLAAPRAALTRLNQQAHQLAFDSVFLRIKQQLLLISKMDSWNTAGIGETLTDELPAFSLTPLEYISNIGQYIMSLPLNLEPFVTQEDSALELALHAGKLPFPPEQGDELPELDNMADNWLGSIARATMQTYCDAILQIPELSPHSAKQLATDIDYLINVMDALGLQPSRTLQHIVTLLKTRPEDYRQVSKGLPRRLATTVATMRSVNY
UniProt Q96MW5: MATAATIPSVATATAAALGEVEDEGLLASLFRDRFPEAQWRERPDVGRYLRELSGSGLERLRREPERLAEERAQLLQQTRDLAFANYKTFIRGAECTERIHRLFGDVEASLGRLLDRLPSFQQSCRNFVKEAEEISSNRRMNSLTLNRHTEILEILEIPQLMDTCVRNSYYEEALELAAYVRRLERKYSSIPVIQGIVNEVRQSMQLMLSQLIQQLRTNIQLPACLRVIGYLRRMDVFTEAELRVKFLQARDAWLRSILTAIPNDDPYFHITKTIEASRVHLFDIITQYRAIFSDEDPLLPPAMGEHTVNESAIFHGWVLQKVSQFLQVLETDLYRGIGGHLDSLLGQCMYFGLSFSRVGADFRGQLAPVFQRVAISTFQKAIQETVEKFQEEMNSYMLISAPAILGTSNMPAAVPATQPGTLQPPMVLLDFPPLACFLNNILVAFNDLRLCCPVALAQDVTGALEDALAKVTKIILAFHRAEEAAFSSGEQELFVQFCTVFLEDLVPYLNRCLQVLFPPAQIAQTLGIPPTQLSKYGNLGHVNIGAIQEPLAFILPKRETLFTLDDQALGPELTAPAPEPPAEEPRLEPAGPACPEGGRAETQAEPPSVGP
UniProt Q9UBL6: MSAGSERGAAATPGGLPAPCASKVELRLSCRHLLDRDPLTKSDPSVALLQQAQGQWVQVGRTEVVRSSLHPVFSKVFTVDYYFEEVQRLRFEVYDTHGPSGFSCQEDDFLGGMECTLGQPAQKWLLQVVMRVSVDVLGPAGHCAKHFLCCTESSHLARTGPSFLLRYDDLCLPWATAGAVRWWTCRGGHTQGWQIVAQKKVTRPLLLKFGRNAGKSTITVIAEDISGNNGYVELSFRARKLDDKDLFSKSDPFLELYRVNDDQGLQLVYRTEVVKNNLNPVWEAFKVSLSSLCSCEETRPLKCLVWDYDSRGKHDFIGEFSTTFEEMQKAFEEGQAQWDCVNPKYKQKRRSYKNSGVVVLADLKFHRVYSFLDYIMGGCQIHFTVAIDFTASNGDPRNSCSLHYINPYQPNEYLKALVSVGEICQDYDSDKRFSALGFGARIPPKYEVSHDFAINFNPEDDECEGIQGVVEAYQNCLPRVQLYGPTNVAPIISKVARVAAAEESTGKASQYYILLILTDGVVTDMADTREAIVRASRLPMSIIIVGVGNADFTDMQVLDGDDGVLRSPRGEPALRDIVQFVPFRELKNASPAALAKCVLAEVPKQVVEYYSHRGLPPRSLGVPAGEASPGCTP
UniProt P61201: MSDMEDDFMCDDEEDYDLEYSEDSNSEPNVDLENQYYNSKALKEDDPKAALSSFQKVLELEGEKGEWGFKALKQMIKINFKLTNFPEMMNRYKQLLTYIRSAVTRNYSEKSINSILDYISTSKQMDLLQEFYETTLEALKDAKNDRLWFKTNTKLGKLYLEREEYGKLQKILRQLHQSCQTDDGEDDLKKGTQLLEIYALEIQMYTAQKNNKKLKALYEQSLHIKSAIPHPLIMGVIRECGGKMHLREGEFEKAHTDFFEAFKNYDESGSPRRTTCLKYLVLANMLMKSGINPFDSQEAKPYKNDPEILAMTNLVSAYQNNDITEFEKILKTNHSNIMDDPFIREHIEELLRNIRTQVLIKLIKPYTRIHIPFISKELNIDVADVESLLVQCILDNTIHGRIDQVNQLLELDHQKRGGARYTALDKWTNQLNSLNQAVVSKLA
UniProt Q9NQ92: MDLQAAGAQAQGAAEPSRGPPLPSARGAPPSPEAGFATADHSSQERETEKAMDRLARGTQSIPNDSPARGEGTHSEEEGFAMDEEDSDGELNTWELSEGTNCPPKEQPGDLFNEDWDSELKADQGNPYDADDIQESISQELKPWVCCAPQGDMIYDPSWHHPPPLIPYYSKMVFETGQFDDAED
UniProt P14406, whole entry, looked up: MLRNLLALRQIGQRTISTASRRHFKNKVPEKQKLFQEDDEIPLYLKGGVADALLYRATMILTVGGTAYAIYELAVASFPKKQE

How the values were obtained:
Assay in all cases: log2 fold change, soluble protein after heating vs DMSO (PISA); higher = thermal stabilisation; K562 lysate, 10 uM; active = over 0.2 and 3.5 SD of the protein, either way, in both replicates (recomputed)
[1] = compound: NCC(=O)Nc1ccc(-n2nc(C(F)(F)F)cc2-c2ccc3c(ccc4ccccc43)c2)cc1
Summary of the method: (§1)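 To prepare the extract, K562 pellets were dounce-homogenised in PBS pH 7.4 with 1 mM MgCl2, giving crude material at 1 mg/mL protein. This was treated with 10 μM compound for 30 min, then heated in aliquots for 3 min over 48°C-58°C before pooling and addition of NP-40 to 0.5% at 4°C. Centrifugation at 21,000xg for 90 min left soluble protein in the supernatant, which TMTpro 16plex LC-MS/MS quantified with equalised channel sums. Results are log-two fold changes in thermal stability compared with solvent controls, from duplicates.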

vorinostat = compound: O=C(CCCCCCC(=O)Nc1ccccc1)NO [vorinostat]
Summary of the method: as §1

silmitasertib = compound: O=C(O)c1ccc2c(c1)nc(Nc1cccc(Cl)c1)c1ccncc12 [silmitasertib]
Summary of the method: as §1

[2] = compound: O=C1NC(=O)C(c2cnc3ccccn23)=C1c1cn2c3c(cc(F)cc13)CN(C(=O)N1CCCCC1)CC2
Summary of the method: as §1

entospletinib = compound: c1cn2cc(-c3ccc4cn[nH]c4c3)nc(Nc3ccc(N4CCOCC4)cc3)c2n1 [entospletinib]
Summary of the method: as §1

Measured: log2 fold change

COPG1 (UniProt Q9Y678)
inactive: [1] 0.016 | vorinostat 0.033 | silmitasertib 0.006 | [2] 0.006 | entospletinib 0.02

COCH (UniProt O43405)
inactive: [1] 0.028 | vorinostat 0.018 | silmitasertib 0.083 | [2] -0.003 | entospletinib -0.124

COG7 (UniProt P83436)
inactive: [1] -0.013 | silmitasertib 0.06 | [2] 0.034 | entospletinib 0.033
active: vorinostat -0.287

COG8 (UniProt Q96MW5)
inactive: [1] 0.05 | vorinostat 0.09 | silmitasertib -0.077 | [2] -0.003 | entospletinib 0.125

CPNE7 (UniProt Q9UBL6)
inactive: [1] 0.086 | vorinostat -0.147 | silmitasertib 0.038 | [2] 0.046 | entospletinib 0.061

COPS2 isoform 2 (UniProt P61201)
inactive: [1] -0.022 | vorinostat 0.021 | silmitasertib 0.008 | [2] 0.021 | entospletinib 0.016

COPRS (UniProt Q9NQ92)
inactive: [1] -0.004 | vorinostat 0.003 | silmitasertib 0.014 | [2] -0.052 | entospletinib 0.046

COL12A1 (UniProt Q99715)
inactive: [1] 0.29 | vorinostat 0.037 | silmitasertib -0.079 | [2] 0.908 | entospletinib -0.036

COX7A2 (UniProt P14406)
inactive: [1] -0.035 | vorinostat 0.152 | silmitasertib -0.014 | [2] 0.064 | entospletinib 0.009
